According to the supplement of paper PMC4604168 (melanoma cell lines):
The list shows a part of the results. Many values rest on one well or one pass, so single values are uncertain.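 The apoptosis fraction was the count of cleaved-PARP antibody-stained nuclei relative to all DNA-stained nuclei, imaged in 1,536-well plates. Screening doses were set so most cells survived, and baseline and induced cleaved-PARP levels vary greatly across cell lines.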

What follows are compounds tested on A2058 (assay: cleaved PARP positive nuclei fraction relative to DMSO control; melanoma cells; higher = more apoptosis). Settings: library dose: low library concentration; 72 h.

SMILES	cleaved PARP positive nuclei fraction [%]
CCCCCCCCCCCCCCCCCCOP(=O)([O-])OC1CC[N+](C)(C)CC1 [Perifosine] + C[As](C)SC[C@H](NC(=O)CC[C@H](N)C(=O)O)C(=O)NCC(=O)O [Darinaparsin] (first compound 0.4 µM, partner dose 0.4 µM)	75
CC(=O)O[C@@]12CO[C@@H]1C[C@H](O)[C@@]1(C)C(=O)[C@H](O)C3=C(C)[C@@H](OC(=O)[C@H](O)[C@@H](NC(=O)OC(C)(C)C)c4ccccc4)C[C@@](O)([C@@H](OC(=O)c4ccccc4)[C@H]21)C3(C)C [Docetaxel] + N.N.[Cl][Pt][Cl] [cisplatin] (first compound 0.0001 µM, partner dose 1.6 µM)	1930
N.N.[Cl][Pt][Cl] [cisplatin] + C#Cc1cccc(Nc2ncnc3cc(OCCOC)c(OCCOC)cc23)c1 [erlotinib] (first compound 1.6 µM, partner dose 0.8 µM)	65.3
C[As](C)SC[C@H](NC(=O)CC[C@H](N)C(=O)O)C(=O)NCC(=O)O [Darinaparsin] + Cc1nc(Nc2ncc(C(=O)Nc3c(C)cccc3Cl)s2)cc(N2CCN(CCO)CC2)n1 [dasatanib] (first compound 0.4 µM, partner dose 0.004 µM)	370
Cn1sc(=O)n(Cc2ccccc2)c1=O + C[As](C)SC[C@H](NC(=O)CC[C@H](N)C(=O)O)C(=O)NCC(=O)O [Darinaparsin] (first compound 0.4 µM, partner dose 0.4 µM)	110
C[C@]12O[C@H](C[C@]1(O)CO)n1c3ccccc3c3c4c(c5c6ccccc6n2c5c31)CNC4=O [Lestaurtinib] + C[C@]1(c2nc3c(C(N)=O)cccc3[nH]2)CCCN1 [Veliparib] (first compound 0.004 µM, partner dose 1.4 µM)	58.1
Cn1cc(C2=C(c3cn(C4CCN(Cc5ccccn5)CC4)c4ccccc34)C(=O)NC2=O)c2ccccc21 [Enzastaurin] + CN1CCN(c2ccc3nc(-c4c(N)c5c(F)cccc5[nH]c4=O)[nH]c3c2)CC1 [Dovitinib] (first compound 0.8 µM, partner dose 0.1 µM)	164
CCCCCCCCc1ccc(CCC(N)(CO)CO)cc1 [fingolimod] + N.N.[Cl][Pt][Cl] [cisplatin] (first compound 2 µM, partner dose 1.6 µM)	74
Cn1cc(C2=C(c3cn(C4CCN(Cc5ccccn5)CC4)c4ccccc34)C(=O)NC2=O)c2ccccc21 [Enzastaurin] + CCCS(=O)(=O)Nc1ccc(F)c(C(=O)c2c[nH]c3ncc(Cl)cc23)c1F [PLX4720] (first compound 0.8 µM, partner dose 0.08 µM)	87.2
CC1(C)CCC(c2ccc(Cl)cc2)=C(CN2CCN(c3ccc(C(=O)NS(=O)(=O)c4ccc(N[C@H](CCN5CCOCC5)CSc5ccccc5)c(S(=O)(=O)C(F)(F)F)c4)cc3)CC2)C1 + N.N.[Cl][Pt][Cl] [cisplatin] (first compound 0.4 µM, partner dose 1.6 µM)	366
Cn1cc(C2=C(c3cn(C4CCN(Cc5ccccn5)CC4)c4ccccc34)C(=O)NC2=O)c2ccccc21 [Enzastaurin] + Nc1ccn([C@@H]2O[C@H](CO)[C@@H](O)C2(F)F)c(=O)n1 [gemcitabine] (first compound 0.8 µM, partner dose 0.0004 µM)	178
N.N.[Cl][Pt][Cl] [cisplatin] + Nc1ncn([C@H]2C[C@H](O)[C@@H](CO)O2)c(=O)n1 [decitabine] (first compound 1.6 µM, partner dose 0.1 µM)	93.8
Cn1sc(=O)n(Cc2ccccc2)c1=O + C[C@]12O[C@H](C[C@]1(O)CO)n1c3ccccc3c3c4c(c5c6ccccc6n2c5c31)CNC4=O [Lestaurtinib] (first compound 0.4 µM, partner dose 0.004 µM)	73
Cn1cc(C2=C(c3cn(C4CCN(Cc5ccccn5)CC4)c4ccccc34)C(=O)NC2=O)c2ccccc21 [Enzastaurin] + COCC[n+]1c2c(n(Cc3cnccn3)c1C)C(=O)c1ccccc1C2=O [YM155] (first compound 0.8 µM, partner dose 0.0004 µM)	177

An excerpt of these results, comma-delimited.
SMILES,cleaved PARP positive nuclei fraction [%]
"Cn1sc(=O)n(Cc2ccccc2)c1=O + C[As](C)SC[C@H](NC(=O)CC[C@H](N)C(=O)O)C(=O)NCC(=O)O [Darinaparsin] (first compound 0.4 µM, partner dose 0.4 µM)",110
"C[C@]12O[C@H](C[C@]1(O)CO)n1c3ccccc3c3c4c(c5c6ccccc6n2c5c31)CNC4=O [Lestaurtinib] + C[C@]1(c2nc3c(C(N)=O)cccc3[nH]2)CCCN1 [Veliparib] (first compound 0.004 µM, partner dose 1.4 µM)",58.1
